What was measured:
Assay type in all cases: cell-based
[1] = test system: gastric cancer organoid GA0429B; experiment: Gastric cancer organoid viability (CTG 3D), GA0429B
Protocol: (§1) Day −1: Patient derived gastric cancer organoids (PDXOs) are sheared to uniform sizes and the required number of organoids are combined 1:1 with 50% Matrigel to produce the right size of the organoids to perform the screen.
(§2) Day 0: Organoid seeding • 1. Collect organoids from each well by adding 20 μl 100× Dispase solution to each well from a 6-well plate, which contains 2 ml of organoid medium. • 2. Put the plates back in the incubator, 37° C. for 30 min. • 3. Collect organoids from all wells and pipet through a pre-wet 100 μm filter into a 50 ml plastic tube. • 4. Once all wells have been filtered over 100 μm filters, filter the flow though over a pre-wet 20 μm filter. • 5. […]
(§3) • 10. Place screening plates back into the incubator before adding compounds and day 0 reading. […] One is for day 0 reading (TO) and the other for reading at the end point.
(§4) Day 0: Compounds treatment and Day 0 baseline CTG (cell titre glo) reading • 11. […] For day 0 reading plate, add 40 μL of CTG 3D per well and read luminescent signal on Envision plate reader.
(§5) Day 6: Endpoint CTG reading. • 1. Read assay plates for luminescent CTG signal at the end of the assays: add 40 μL of CTG 3D per well by Multidrop dispenser, mix the contents for 5 min on the plate shaker, and incubate the plates for 30 min at room temperature in dark. Read luminescent signal on Envision plate reader. […]

[2] = test system: gastric cancer organoid GA6877B; experiment: Gastric cancer organoid viability (CTG 3D), GA6877B
Protocol: as §1, §2, §3, §4, §5

[3] = test system: gastric cancer organoid GA6894B; experiment: Gastric cancer organoid viability (CTG 3D), GA6894B
Protocol: as §1, §2, §3, §4, §5

[4] = test system: gastric cancer organoid GA2434B; experiment: Gastric cancer organoid viability (CTG 3D), GA2434B
Protocol: as §1, §2, §3, §4, §5

[5] = test system: gastric cancer organoid GA3102B; experiment: Gastric cancer organoid viability (CTG 3D), GA3102B
Protocol: as §1, §2, §3, §4, §5

[6] = test system: gastric cancer organoid GA0119B; experiment: Gastric cancer organoid viability (CTG 3D), GA0119B
Protocol: as §1, §2, §3, §4, §5

[7] = test system: gastric cancer organoid GA0091B; experiment: Gastric cancer organoid viability (CTG 3D), GA0091B
Protocol: as §1, §2, §3, §4, §5

[8] = test system: gastric cancer organoid GA6815B; experiment: Gastric cancer organoid viability (CTG 3D), GA6815B
Protocol: as §1, §2, §3, §4, §5

[9] = test system: gastric cancer organoid GA0098B; experiment: Gastric cancer organoid viability (CTG 3D), GA0098B
Protocol: as §1, §2, §3, §4, §5

[10] = test system: gastric cancer organoid GA6833B; experiment: Gastric cancer organoid viability (CTG 3D), GA6833B
Protocol: as §1, §2, §3, §4, §5

[11] = test system: gastric cancer organoid GA0087B; experiment: Gastric cancer organoid viability (CTG 3D), GA0087B
Protocol: as §1, §2, §3, §4, §5

[12] = test system: gastric cancer organoid GA2109B; experiment: Gastric cancer organoid viability (CTG 3D), GA2109B
Protocol: as §1, §2, §3, §4, §5

[13] = test system: gastric cancer organoid GA3055B; experiment: Gastric cancer organoid viability (CTG 3D), GA3055B
Protocol: as §1, §2, §3, §4, §5

[14] = test system: gastric cancer organoid GA6866B; experiment: Gastric cancer organoid viability (CTG 3D), GA6866B
Protocol: as §1, §2, §3, §4, §5

[15] = test system: gastric cancer organoid GA0060B; experiment: Gastric cancer organoid viability (CTG 3D), GA0060B
Protocol: as §1, §2, §3, §4, §5

[16] = test system: gastric cancer organoid GA6891B; experiment: Gastric cancer organoid viability (CTG 3D), GA6891B
Protocol: as §1, §2, §3, §4, §5

CN[C@@H]1C[C@H]2O[C@@](C)([C@@H]1OC)n1c3ccccc3c3c4c(c5c6ccccc6n2c5c31)C(=O)NC4 [Staurosporine]
Max_Inhibition [1]: 99.92% | Max_Inhibition [2]: 99.99% | Max_Inhibition [3]: 100.01% | Max_Inhibition [4]: 99.86% | Max_Inhibition [5]: 99.71% | Max_Inhibition [6]: 99.89% | Max_Inhibition [7]: 99.29% | Max_Inhibition [8]: 99.01% | Max_Inhibition [9]: 99.46% | Max_Inhibition [10]: 100.02% | Max_Inhibition [11]: 98.04% | Max_Inhibition [12]: 99.99% | Max_Inhibition [13]: 98.42% | Max_Inhibition [14]: 99.97% | Max_Inhibition [15]: 99.99% | Max_Inhibition [16]: 99.57%

Reference: US20260144890A1, “ANTIBODY DRUG CONJUGATE COMPRISING NMT INHIBITOR CONJUGATED TO AN ANTIBODY” (MyricX Pharma Limited, priority 2024, published 2026)
